Results from the supplement of paper PMC5407854, “Inhibitor of ppGalNAc-T3-mediated O-glycosylation blocks cancer cell invasiveness and lowers FGF23 levels” (eLife, 2017).
In all, about 1,700 compounds were measured (“T2 sensor activation Q score (MG/GFP ratio z-score vs DMSO controls)”: median about 0.3, highest 2% from about 1.9 on). This is one part of the list.

Each molecule was assayed on ppGalNAc-T2 sensor (assay: T2 sensor activation Q score (MG/GFP ratio z-score vs DMSO controls) (SD units); higher = more sensor activation (inhibition of ppGalNAc-T2 glycosylation)). Details: HEK293 sensor cells; 10 µM; 6 h.
Procedure: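 Cells were treated with compound at 10 uM for 6 h, then MG/GFP ratio was read by flow cytometry (10,000 cells per well, duplicate wells). Q = (R - R_neg)/SD_neg relative to DMSO vehicle controls; the signal rises when the glycosyltransferase is inhibited.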
In the case of NC(=O)Nc1ccc(Nc2ccccc2)cc1, the “T2 sensor activation Q score” value is reported as 0.35.
O=C(O)c1cc2cc(OCc3ccccc3)ccc2[nH]1 was tested, and the “T2 sensor activation Q score” value was 0.95.
With COc1cc(O)c(C(=O)/C=C/c2ccccc2)c(OC)c1 the “T2 sensor activation Q score” value was -0.35.
In the case of CCSc1nc(=S)cc(C)[nH]1, the “T2 sensor activation Q score” value is reported as -0.1.
For CC(C)Oc1ccc(C(=O)O)cc1, the “T2 sensor activation Q score” value was 0.15.
O=[N+]([O-])c1ccc2c3ccccc3[s+]([O-])c2c1 (stereo not drawn) was tested, and the “T2 sensor activation Q score” value was 0.25.
c1ccc2c(c1)Nc1cc3ccccc3cc1S2 was tested, and the “T2 sensor activation Q score” value was 1.75.
CS/C(=C\c1ccc(C(=O)c2ccc(C)cc2)n1C)[S+](C)[O-] (stereo not drawn) was tested, and the “T2 sensor activation Q score” value was 5.35.
O=c1[nH]cnc2c1ncn2Cc1ccc([N+](=O)[O-])cc1 was tested, and the “T2 sensor activation Q score” value was -0.6.
In the case of CC1CCCC(CC(=O)O)(CC(=O)O)C1 (stereo not drawn), the “T2 sensor activation Q score” value is reported as 0.2.
CCOC(=O)Nc1c(Cl)n(C)c(=O)n(C)c1=O was tested, and the “T2 sensor activation Q score” value was 0.8.
CCOC(=O)C1(C#N)C(=O)CSC1=Nc1ccccc1Cl (stereo not drawn) was tested, and the “T2 sensor activation Q score” value was 0.8.
In the case of C=CCNC(=S)NCC, the “T2 sensor activation Q score” value is reported as 0.4.
With CSc1nc(Cl)c(Br)c(Nc2c[nH]c(=O)[nH]c2=O)n1 the “T2 sensor activation Q score” value was 0.7.
Cc1ccc(NC(=O)N2CCCCC2)cc1[N+](=O)[O-] was tested, and the “T2 sensor activation Q score” value was 0.15.
In the case of CSc1n[nH]c(-c2cccs2)n1, the “T2 sensor activation Q score” value is reported as 0.45.
CCC(=Cc1ccc(CC)cn1)CC was tested, and the “T2 sensor activation Q score” value was 1.85.
Cn1ncc2c(Sc3ccc(Cl)cc3)ncnc21 was tested, and the “T2 sensor activation Q score” value was 1.3.
For Cn1ncc2c(Nc3ccc(Br)cc3)nc(Nc3ccc(Br)cc3)nc21, the “T2 sensor activation Q score” value was 0.35.
For Nc1ccccc1-n1nc2ccc3ccccc3c2n1, the “T2 sensor activation Q score” value was -1.5.
With O=C(c1ccccc1)c1ccc(Sc2ccc([N+](=O)[O-])cc2)cc1 the “T2 sensor activation Q score” value was 7.7.
In the case of CN1CCN(C(=O)Nc2ccc([N+](=O)[O-])cc2)CC1, the “T2 sensor activation Q score” value is reported as 0.5.
Clc1ccc(C(c2ccccc2Cl)C(Cl)Cl)cc1 (stereo not drawn) was tested, and the “T2 sensor activation Q score” value was -1.6.
For O=C(Oc1ccccc1)N(c1ccccc1)c1ccccc1, the “T2 sensor activation Q score” value was 0.35.
C[C@]12CC[C@@H]3c4ccc(OCC(=O)O)cc4CC[C@H]3[C@@H]1CCC2=O was tested, and the “T2 sensor activation Q score” value was -1.05.
With COC(=O)C1=CC(=O)N2CCN=C2S1 the “T2 sensor activation Q score” value was 0.45.
With C=CCN(CC=C)C(=O)Nc1cc(OC)ccc1OC the “T2 sensor activation Q score” value was 0.9.
With COc1ccc(OC(=O)Nc2ccc([N+](=O)[O-])cc2OC)cc1 the “T2 sensor activation Q score” value was 0.95.
With N[C@H](C(=O)O)[C@H]1ON=C(Cl)[C@H]1O the “T2 sensor activation Q score” value was -1.4.
Nc1nc2[nH]cc(CCc3ccc(C(=O)N[C@@H](CCC(=O)O)C(=O)O)cc3)c2c(=O)[nH]1 was tested, and the “T2 sensor activation Q score” value was -0.75.
With O=[N+]([O-])c1ccc(/C=C/c2ccncc2)cc1 the “T2 sensor activation Q score” value was -1.35.
In the case of Nc1ccn(C2OC(CCl)C(O)C2O)c(=O)n1 (stereo not drawn), the “T2 sensor activation Q score” value is reported as -0.65.
O=C(/C=C/c1ccccc1)CC(c1ccccc1)N1CCOCC1 (stereo not drawn) was tested, and the “T2 sensor activation Q score” value was -0.6.
With COC(=O)CC1OCC=C2CN3CCC45C6=CC(=O)C(=O)C([N+](=O)[O-])=C6NC4C1C2CC35 (stereo not drawn) the “T2 sensor activation Q score” value was 0.85.
In the case of CN(C)c1ccc(N=Nc2ccccn2)cc1, the “T2 sensor activation Q score” value is reported as -1.95.
With CCCCCC(=O)N1CCCCC1 the “T2 sensor activation Q score” value was -1.85.
C=CCNC(=S)Nc1cccc([N+](=O)[O-])c1 was tested, and the “T2 sensor activation Q score” value was -0.45.
CC(C)NC(=O)c1ccc(C(C)C)cc1 was tested, and the “T2 sensor activation Q score” value was 1.15.
With CN(C)c1ccc(/C=C/c2ccc3ccccc3n2)cc1 the “T2 sensor activation Q score” value was -1.2.
In the case of O=c1[nH]nc(-c2cc(-c3ccccc3)nc3ccccc23)o1, the “T2 sensor activation Q score” value is reported as 1.55.
For S=c1[nH]ccn1-c1c(Cl)cccc1Cl, the “T2 sensor activation Q score” value was 0.9.
With CSc1nc(Cl)cc(=O)[nH]1 the “T2 sensor activation Q score” value was 0.15.
In the case of O=C(C(Cl)Cl)N1CC2CCC(CC2)C1, the “T2 sensor activation Q score” value is reported as 0.3.
In the case of CCOC(=O)N1CCN(Cc2c(O)ccc3ccccc23)CC1, the “T2 sensor activation Q score” value is reported as -0.05.
CN(C)C(=O)OCC1COc2ccccc2O1 (stereo not drawn) was tested, and the “T2 sensor activation Q score” value was 0.5.
With CC1=NC2=CC=CC3=NC(C(Cl)(Cl)Cl)=NC(=N1)N23 the “T2 sensor activation Q score” value was -0.9.
c1ccc(Nc2cccc3c(Nc4ccccc4)cccc23)cc1 was tested, and the “T2 sensor activation Q score” value was 1.85.
In the case of COc1cc2ncnc(Nc3ccc(F)c(Cl)c3)c2cc1OCCCN1CCOCC1, the “T2 sensor activation Q score” value is reported as -1.5.
For Cc1cccc(C)c1NC(=O)Nc1ccc(S(N)(=O)=O)cc1, the “T2 sensor activation Q score” value was 1.55.
With C=C(C)C(=O)Nc1ccc(NC(C)C)cc1 the “T2 sensor activation Q score” value was 0.8.
NS(=O)(=O)c1cc2c(cc1Cl)NC(CC1CCCC1)NS2(=O)=O (stereo not drawn) was tested, and the “T2 sensor activation Q score” value was 0.8.
O=C(c1ccccc1)c1ccccc1C(=O)c1ccccc1 was tested, and the “T2 sensor activation Q score” value was 0.65.
CCc1oc2ccccc2c1C(=O)c1cc(Br)c(O)c(Br)c1 was tested, and the “T2 sensor activation Q score” value was 0.3.
For CC/C(=C(\c1ccccc1)c1ccc(OCCN(C)C)cc1)c1ccccc1, the “T2 sensor activation Q score” value was -1.45.
CCCSc1nc2c(c(=O)n(C)c(=O)n2C)n1C was tested, and the “T2 sensor activation Q score” value was -0.05.
NC(=O)NC1NC(=O)NC1=O (stereo not drawn) was tested, and the “T2 sensor activation Q score” value was 0.
O=C1c2cccc3cc([N+](=O)[O-])cc(c23)C(=O)N1CCN1CCCC1 was tested, and the “T2 sensor activation Q score” value was 0.7.
For O=C(/C=C/c1ccc(O)c(O)c1)OC1[C@H](O)CC(OC(=O)/C=C/c2ccc(O)c(O)c2)(C(=O)O)C[C@H]1O (stereo partly drawn), the “T2 sensor activation Q score” value was 0.5.
In the case of Cc1cc2cc3c(=O)[nH]c(=O)[nH]c3nc2cc1C, the “T2 sensor activation Q score” value is reported as -0.35.
For CC(C)c1cc(C(F)(F)F)nc(NNc2nc(C(C)C)cc(C(F)(F)F)n2)n1, the “T2 sensor activation Q score” value was 0.1.
In the case of CCC12CCCN3CCc4c(n(c5ccccc45)C(O)(C(=O)OC)C1)C32 (stereo not drawn), the “T2 sensor activation Q score” value is reported as -0.25.
For COc1ccc2[nH]c(-c3ccccc3)cc2c1, the “T2 sensor activation Q score” value was -1.6.
In the case of COc1ccc(C(=S)N2CCN(c3ccccc3C)CC2)cc1, the “T2 sensor activation Q score” value is reported as -0.85.
